Test results published in the supplement of paper PMC3493320.

Test system: NCI-H295R
Assay: IC50 (antiproliferative, ATP content)
Conditions: 48 h
Procedure, shortened: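 Cell viability of adrenocortical carcinoma cells was assessed as ATP by CellTiter-Glo luminescence. Cells at 1500 per well in 1536-well plates, in serum-free DMEM with ITS, received compounds by pin transfer at 8 final concentrations (0.6 nM–46 µM) after overnight culture and were then held 48 h at 37 °C, 5% CO2. IC50 was calculated by logistic fitting against vehicle and positive-control wells, compounds with no concentration response being recorded as above the top dose.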

- IC50: > 46 µM
Compound: Br.CN1[C@@H]2CC[C@H]1C[C@@H](OC(=O)C(O)c1ccccc1)C2 (stereo partly specified)
